Results published in article PMC12674617.

Protein sequences, listed by entry. Tags and fused reporters are not part of them. Lines headed by an entry give the natural chain unless they say otherwise; changes in a name come on top.
UniProt Q8TD16: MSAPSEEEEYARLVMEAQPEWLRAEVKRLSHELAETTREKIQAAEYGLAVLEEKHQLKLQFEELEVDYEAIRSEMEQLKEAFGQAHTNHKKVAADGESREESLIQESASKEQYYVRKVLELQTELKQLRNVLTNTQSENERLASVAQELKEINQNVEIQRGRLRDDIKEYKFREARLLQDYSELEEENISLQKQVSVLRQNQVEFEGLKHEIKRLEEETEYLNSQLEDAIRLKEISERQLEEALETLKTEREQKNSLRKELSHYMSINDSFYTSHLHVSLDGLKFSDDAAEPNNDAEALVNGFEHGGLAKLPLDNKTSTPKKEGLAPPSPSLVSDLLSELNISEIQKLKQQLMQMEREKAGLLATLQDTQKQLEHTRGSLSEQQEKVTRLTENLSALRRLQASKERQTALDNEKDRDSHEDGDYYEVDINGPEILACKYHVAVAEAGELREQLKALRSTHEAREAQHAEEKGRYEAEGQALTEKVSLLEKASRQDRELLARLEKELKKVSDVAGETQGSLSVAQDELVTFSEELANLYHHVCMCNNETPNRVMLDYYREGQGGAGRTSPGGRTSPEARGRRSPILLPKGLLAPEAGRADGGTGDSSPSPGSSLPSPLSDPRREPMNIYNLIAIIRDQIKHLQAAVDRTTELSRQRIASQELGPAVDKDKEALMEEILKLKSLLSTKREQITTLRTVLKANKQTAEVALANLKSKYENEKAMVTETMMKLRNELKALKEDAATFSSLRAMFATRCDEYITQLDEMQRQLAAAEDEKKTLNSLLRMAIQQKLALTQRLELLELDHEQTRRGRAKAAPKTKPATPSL
UniProt Q1MSJ5: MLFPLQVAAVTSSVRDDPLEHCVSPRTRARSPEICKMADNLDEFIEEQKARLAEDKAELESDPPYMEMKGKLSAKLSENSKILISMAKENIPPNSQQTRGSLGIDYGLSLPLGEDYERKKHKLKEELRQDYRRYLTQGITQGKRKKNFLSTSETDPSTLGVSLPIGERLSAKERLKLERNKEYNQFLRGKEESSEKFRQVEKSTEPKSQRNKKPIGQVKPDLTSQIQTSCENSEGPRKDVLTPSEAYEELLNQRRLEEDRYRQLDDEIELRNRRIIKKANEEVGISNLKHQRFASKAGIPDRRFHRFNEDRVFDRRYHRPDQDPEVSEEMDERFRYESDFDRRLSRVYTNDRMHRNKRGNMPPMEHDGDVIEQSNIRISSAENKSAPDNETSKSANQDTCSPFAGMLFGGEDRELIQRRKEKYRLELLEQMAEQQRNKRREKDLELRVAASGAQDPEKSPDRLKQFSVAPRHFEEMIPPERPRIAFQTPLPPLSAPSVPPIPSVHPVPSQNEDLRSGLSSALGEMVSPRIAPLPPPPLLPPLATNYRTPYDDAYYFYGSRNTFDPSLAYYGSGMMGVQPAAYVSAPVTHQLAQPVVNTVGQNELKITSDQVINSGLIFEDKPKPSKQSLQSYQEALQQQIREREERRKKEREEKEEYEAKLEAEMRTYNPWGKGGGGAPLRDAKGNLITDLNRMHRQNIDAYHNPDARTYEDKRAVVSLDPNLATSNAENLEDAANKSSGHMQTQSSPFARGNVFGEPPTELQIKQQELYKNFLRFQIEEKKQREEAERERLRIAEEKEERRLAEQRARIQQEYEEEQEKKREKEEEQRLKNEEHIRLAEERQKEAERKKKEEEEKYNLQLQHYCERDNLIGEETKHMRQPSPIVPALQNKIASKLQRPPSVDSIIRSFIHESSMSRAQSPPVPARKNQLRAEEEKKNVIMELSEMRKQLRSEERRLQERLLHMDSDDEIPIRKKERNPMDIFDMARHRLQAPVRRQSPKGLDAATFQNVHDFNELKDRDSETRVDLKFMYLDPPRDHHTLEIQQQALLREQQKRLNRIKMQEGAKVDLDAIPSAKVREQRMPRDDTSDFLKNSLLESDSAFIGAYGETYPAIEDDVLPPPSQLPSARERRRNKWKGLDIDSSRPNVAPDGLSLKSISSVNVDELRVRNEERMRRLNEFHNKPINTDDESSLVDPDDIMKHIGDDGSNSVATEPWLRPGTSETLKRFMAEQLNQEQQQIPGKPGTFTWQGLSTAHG
UniProt P33176: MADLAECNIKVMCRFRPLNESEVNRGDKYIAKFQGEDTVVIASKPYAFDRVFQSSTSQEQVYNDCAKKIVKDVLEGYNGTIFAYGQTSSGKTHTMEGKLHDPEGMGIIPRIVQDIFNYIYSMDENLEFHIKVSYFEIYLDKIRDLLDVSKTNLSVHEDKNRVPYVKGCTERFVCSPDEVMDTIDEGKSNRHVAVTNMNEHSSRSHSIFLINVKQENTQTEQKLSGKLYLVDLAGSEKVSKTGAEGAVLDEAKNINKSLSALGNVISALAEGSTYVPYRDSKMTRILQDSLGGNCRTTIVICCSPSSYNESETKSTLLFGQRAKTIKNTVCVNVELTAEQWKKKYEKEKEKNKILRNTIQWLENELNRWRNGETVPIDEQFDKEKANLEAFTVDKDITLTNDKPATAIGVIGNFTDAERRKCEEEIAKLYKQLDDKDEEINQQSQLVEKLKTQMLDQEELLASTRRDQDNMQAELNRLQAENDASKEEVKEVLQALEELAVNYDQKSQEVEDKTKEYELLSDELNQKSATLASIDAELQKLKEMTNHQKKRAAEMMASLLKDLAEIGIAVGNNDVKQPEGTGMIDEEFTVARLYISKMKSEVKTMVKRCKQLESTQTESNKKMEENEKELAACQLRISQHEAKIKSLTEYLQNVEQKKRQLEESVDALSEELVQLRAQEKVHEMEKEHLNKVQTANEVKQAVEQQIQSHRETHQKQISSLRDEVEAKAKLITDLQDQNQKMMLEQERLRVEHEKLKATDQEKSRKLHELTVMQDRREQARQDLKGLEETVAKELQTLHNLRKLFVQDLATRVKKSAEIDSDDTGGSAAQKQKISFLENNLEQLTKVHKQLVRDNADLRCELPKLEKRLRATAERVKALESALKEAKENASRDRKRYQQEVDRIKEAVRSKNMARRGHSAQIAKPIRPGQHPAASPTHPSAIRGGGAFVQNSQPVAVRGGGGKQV
UniProt P53350: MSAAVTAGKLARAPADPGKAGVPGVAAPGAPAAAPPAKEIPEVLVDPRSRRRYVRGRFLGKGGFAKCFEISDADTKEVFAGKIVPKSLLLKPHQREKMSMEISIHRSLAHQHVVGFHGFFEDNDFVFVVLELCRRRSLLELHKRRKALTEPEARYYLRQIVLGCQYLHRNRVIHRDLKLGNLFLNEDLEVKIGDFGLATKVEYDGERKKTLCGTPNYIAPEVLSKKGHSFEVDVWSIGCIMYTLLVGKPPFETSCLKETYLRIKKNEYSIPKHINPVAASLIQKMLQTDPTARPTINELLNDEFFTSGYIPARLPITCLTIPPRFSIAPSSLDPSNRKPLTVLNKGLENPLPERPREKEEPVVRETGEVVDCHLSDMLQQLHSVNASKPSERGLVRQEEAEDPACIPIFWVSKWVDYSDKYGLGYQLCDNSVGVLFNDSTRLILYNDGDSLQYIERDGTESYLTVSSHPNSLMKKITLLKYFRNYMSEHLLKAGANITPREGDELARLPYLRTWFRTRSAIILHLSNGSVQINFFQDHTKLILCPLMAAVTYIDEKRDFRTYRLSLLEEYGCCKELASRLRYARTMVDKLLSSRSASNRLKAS

Key:
[1] = molecular target: BICD2_R694C-mTrbo (human) (UniProt Q8TD16); experiment: proximity labelling; mini-TurboID fusions in HEK Flp-In T-REx 293 cells, biotin labelling; 5 mg lysate protein, streptavidin magnetic beads overnight at 4 °C, washes with RIPA, high-salt RIPA (1 M NaCl) and PBS; mass spectrometry, triplicate; hits at least twofold against RFP-mTrbo (or mutant against wild type) with p value 0.05
[2] = molecular target: BICD2_N188T-mTrbo (human) (UniProt Q8TD16); experiment: as above
[3] = molecular target: BICD2_R747C-mTrbo (human) (UniProt Q8TD16); experiment: as above
[4] = molecular target: BICD2_R694C-mTrbo (human) (UniProt Q8TD16); experiment: proximity labelling; mini-TurboID fusions in HEK Flp-In T-REx 293 cells, Tet 1 µg/ml 24 hr, biotin 500 µM 40 min; lysate in RIPA buffer, 1 mg protein, streptavidin agarose beads overnight at 4 °C, four RIPA washes, western blot; also in cells treated with siRNA to BICD2, VPS41 or RANBP2
[5] = molecular target: BICD2_N188T-mTrbo (human) (UniProt Q8TD16); experiment: as above
[6] = molecular target: BICD2_R747C-mTrbo (human) (UniProt Q8TD16); experiment: as above
[7] = molecular target: full-length BICD2 tagged on the C-terminus with mini-TurboID (BICD2-mTrbo) (human) (UniProt Q8TD16); experiment: as above
[8] = molecular target: full-length BICD2 tagged on the C-terminus with mini-TurboID (BICD2-mTrbo) (human) (UniProt Q8TD16); experiment: proximity labelling; mini-TurboID fusions in HEK Flp-In T-REx 293 cells, biotin labelling; 5 mg lysate protein, streptavidin magnetic beads overnight at 4 °C, washes with RIPA, high-salt RIPA (1 M NaCl) and PBS; mass spectrometry, triplicate; hits at least twofold against RFP-mTrbo (or mutant against wild type) with p value 0.05

| Substance | binding [1] | binding [2] | binding [3] | binding [4] | binding [5] | binding [6] | binding [7] | binding [8] |
| --- | --- | --- | --- | --- | --- | --- | --- | --- |
| CSPP1 (from UniProt Q1MSJ5 1-1256) | binds | binds | binds | binds | binds | binds | – | – |
| KIF5B (from UniProt P33176 1-963) | – | – | – | binds weakly | binds weakly | – | binds weakly | – |
| PLK1 (from UniProt P53350 1-603) | – | – | – | – | – | – | – | binds |

These are yes or no findings as the source states them, for the method shown. In cells and extracts the contact can be indirect. A yes stands for co-enrichment or nearness to the bait. Other partners may have been found.
